Laboratory results as given in PubChem BioAssay AID206 (DTP/NCI, 2004).
The list shows only some results of the screen, not a fair sample: it is rich in T/C values a quarter to a half above the control, in often repeated tests (any T/C) and in doses without a T/C. Other doses and runs of a compound stand elsewhere. T/C: endpoint of the treated group in % of that of the vehicle group. Schedule codes are those of the source, read here as Q, the interval in days (D) or hours (H), X, the number of doses. Some entries give survivors of the animals treated and no T/C: the source files T/C as zero there, which appears to mark a toxic dose or a test without result, not a measured value. Survivors were counted at the toxicity check, usually on the fifth day, unless a day is given; later deaths do not show. Some entries were tested several times; the results are listed from low to high.

Tested on: nude mice, HT29 intrarenal xenograft, tumor weight T/C
Assay: NCI In Vivo Anticancer Drug Screen. Data for tumor model HT29;CX-1 Human Adenocarcinoma (MER+) (intrarenal inoculation) in NU/NU Swiss (nude) mice
Settings: T/C endpoint: mean tumor weight change, higher T/C = larger tumour; for T/C: evaluated on day 15
Summary of the method: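 Endpoint measured as tumor size or survival; ratio reported is treated group over vehicle controls.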

For `C=C(C(=O)O)C(N)C(=O)O` (configuration not stated), the survivor count (dose: 1800.0 mg/kg/injection, schedule: Q04DX004 (sc), vehicle: suspension in saline) was 2 of 6 on day 15.
`C=C1C(=O)OC2CC(C)C3C4OC4C(O)C3(C)C(O)C12` (configuration not stated) was tested, and the survivor count (dose: 400.0 mg/kg/injection, schedule: Q04DX004 (sc), vehicle: saline with Tween-80) was 1 of 6 on day 15.
For `Cc1[nH]c(=O)[nH]c(=O)c1N(CCF)CCCl`, the survivor count (dose: 80.0 mg/kg/injection, schedule: Q01DX010 (sc), vehicle: Klucel (hydroxypropylcellulose) (HPC)) was 0 of 3 on day 20.
In the case of `[Cl][Pt+2][Cl].[NH-]CC1(C[NH-])CCC1`, the survivor count (dose: 50.0 mg/kg/injection, schedule: Q04DX004 (sc), vehicle: suspension in saline) is reported as 0 of 6 on day 15 and the survivor count (dose: 100.0 mg/kg/injection, schedule: Q04DX004 (sc), vehicle: suspension in saline) is reported as 0 of 6 on day 15.
With `CC(C)=CC(=O)OC1C2C(C)=CC(=O)C(O)C2(C)C2C3(O)OCC24C(CC(=O)OC14)C(C)C3O` (configuration not stated) the T/C (dose: 2.5 mg/kg/injection, schedule: Q04DX004 (sc), vehicle: saline with Tween-80) was 134 % of control, the survivor count (dose: 10.0 mg/kg/injection, schedule: Q04DX004 (sc), vehicle: distilled water + Tween-80) was 0 of 3 on day 15 and 0 of 6 on day 15 and the survivor count (dose: 10.0 mg/kg/injection, schedule: Q04DX004 (sc), vehicle: saline with Tween-80) was 0 of 3 on day 15.
For `O=C(CCCN1CCC(O)(c2cccc(C(F)(F)F)c2)CC1)c1ccc(F)cc1`, the survivor count (dose: 100.0 mg/kg/injection, schedule: Q01DX010 (sc), vehicle: Klucel (hydroxypropylcellulose) (HPC)) was 1 of 3 on day 11 and the survivor count (dose: 200.0 mg/kg/injection, schedule: Q01DX010 (sc), vehicle: Klucel (hydroxypropylcellulose) (HPC)) was 0 of 3 on day 11 and 1 of 3 on day 11.
With `CC1(C)COCN1COC1CCCCC1` the survivor count (dose: 1600.0 mg/kg/injection, schedule: Q04DX004 (sc), vehicle: saline) was 2 of 6 on day 15.
`Nc1ccc(Cl)cc1N` was tested, and the survivor count (dose: 3600.0 mg/kg/injection, schedule: Q04DX004 (sc), vehicle: saline with Tween-80) was 1 of 6 on day 15.
With `COc1ccc(C[C@H](N)C(=O)NC2C(CO)OC(n3cnc4c(N(C)C)ncnc43)C2O)cc1` (some centres not stated) the survivor count (dose: 800.0 mg/kg/injection, schedule: Q04DX004 (sc), vehicle: saline) was 0 of 6 on day 15.
With `CC1(C)N=C(N)N=C(N)N1c1ccc(CCCCc2ccc(S(=O)(=O)F)cc2Cl)c(Cl)c1` the survivor count (dose: 50.0 mg/kg/injection, schedule: Q01DX010 (sc), vehicle: saline) was 0 of 3 on day 11 and the survivor count (dose: 100.0 mg/kg/injection, schedule: Q01DX010 (sc), vehicle: saline) was 0 of 3 on day 11.
`COc1cc2c(c(OC)c1OC)-c1c(cc3c(c1OC)OCO3)CC(C)C(C)(O)C2OC(=O)c1ccccc1` (configuration not stated) was tested, and the T/C (dose: 150.0 mg/kg/injection, schedule: Q04DX004 (sc), vehicle: saline + alcohol) was 130 % of control, the T/C (dose: 300.0 mg/kg/injection, schedule: Q04DX004 (sc), vehicle: saline + alcohol) was 128 % of control and the T/C (dose: 600.0 mg/kg/injection, schedule: Q04DX004 (sc), vehicle: saline + alcohol) was 138 % of control.
For `Nc1nc2c(C(=O)N3CCCC3)nnn2c2ccccc12`, the survivor count (dose: 150.0 mg/kg/injection, schedule: Q04DX004 (sc), vehicle: saline with Tween-80) was 3 of 6 on day 15, the survivor count (dose: 300.0 mg/kg/injection, schedule: Q04DX004 (sc), vehicle: saline with Tween-80) was 0 of 6 on day 15 and the survivor count (dose: 600.0 mg/kg/injection, schedule: Q04DX004 (sc), vehicle: saline with Tween-80) was 0 of 6 on day 15.
`O=C1NC(=O)NC(C(=O)O)N1` was tested, and the survivor count (dose: 2400.0 mg/kg/injection, schedule: Q04DX004 (sc), vehicle: Klucel (hydroxypropylcellulose) (HPC)) was 3 of 6 on day 15.
